Reference: article PMC5464861
Where two headings read alike, the source gives them in different places. No constants are given. Whether binding was seen depends on the method and setting. In cells and extracts the contact can be indirect. Binding can be weak; no strength is given.

Sequences of proteins named here, by UniProt entry; tags and fusion partners are left off. A change or cut given only in a name is not applied to a line headed by its entry.
UniProt O00571: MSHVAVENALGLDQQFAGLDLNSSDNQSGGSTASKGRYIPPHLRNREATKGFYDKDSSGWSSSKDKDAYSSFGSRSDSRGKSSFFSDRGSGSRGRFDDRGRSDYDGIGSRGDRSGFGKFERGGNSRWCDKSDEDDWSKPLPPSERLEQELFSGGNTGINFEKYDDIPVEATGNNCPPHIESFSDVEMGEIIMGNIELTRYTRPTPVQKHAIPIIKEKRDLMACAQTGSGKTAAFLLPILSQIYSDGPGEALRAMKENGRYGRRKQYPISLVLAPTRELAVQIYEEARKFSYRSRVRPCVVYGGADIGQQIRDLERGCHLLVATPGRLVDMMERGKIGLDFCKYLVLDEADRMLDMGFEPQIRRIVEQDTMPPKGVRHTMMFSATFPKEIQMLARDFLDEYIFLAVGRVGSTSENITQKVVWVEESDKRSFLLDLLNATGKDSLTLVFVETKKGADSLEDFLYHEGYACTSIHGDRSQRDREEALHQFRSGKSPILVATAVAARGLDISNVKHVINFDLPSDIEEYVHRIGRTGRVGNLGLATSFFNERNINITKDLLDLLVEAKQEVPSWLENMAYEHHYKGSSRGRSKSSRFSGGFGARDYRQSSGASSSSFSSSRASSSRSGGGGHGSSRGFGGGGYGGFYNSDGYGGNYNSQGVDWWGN
UniProt P67775: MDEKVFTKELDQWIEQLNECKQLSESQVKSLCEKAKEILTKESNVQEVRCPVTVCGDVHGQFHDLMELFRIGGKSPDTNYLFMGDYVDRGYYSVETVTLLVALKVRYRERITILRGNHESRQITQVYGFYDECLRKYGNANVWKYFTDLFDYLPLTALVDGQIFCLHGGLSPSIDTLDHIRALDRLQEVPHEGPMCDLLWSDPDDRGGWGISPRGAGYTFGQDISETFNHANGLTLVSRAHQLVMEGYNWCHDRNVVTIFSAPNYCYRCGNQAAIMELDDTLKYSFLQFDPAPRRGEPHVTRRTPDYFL

Experiments:
[1] = target: Flag-tagged DDX3 (human (cDNA from HeLa cells)) (UniProt O00571); experiment: co-IP; HeLa, HEK-293T and HepG2 cells co-transfected with HA-tagged PP2A-C and Flag-tagged DDX3 for 48 h; lysate precipitated with anti-Flag antibody, blot with anti-HA or anti-Flag
[2] = target: endogenous PP2A-C subunit (human (endogenous in HeLa)) (UniProt P67775); experiment: co-IP; endogenous proteins in HeLa cells transfected with siNC or siDDX3 for 48 h; precipitated with anti-PP2A-C or rabbit IgG, blot for IKK-β
[3] = target: endogenous DDX3 (human (endogenous in HeLa)) (UniProt O00571); experiment: co-IP; endogenous proteins; lysate (50 mM Tris-HCl pH 7.4, 150 mM NaCl, 1 mM EDTA, 1% NP-40) precipitated with DDX3 mouse antibody or mouse IgG on protein G agarose at 4°C, blot for PP2A-C; HeLa, by the text also HEK-293T and HepG2
[4] = target: endogenous PP2A-C subunit (human (endogenous in HeLa)) (UniProt P67775); experiment: co-IP; endogenous proteins in HeLa cells transfected with siNC or siDDX3 for 48 h; precipitated with anti-PP2A-C or rabbit IgG, blot for IKK-β; remark: listed apart in the source

HA-tagged PP2A-C subunit (from UniProt P67775)
binding [1]: binds

endogenous DDX3 (from UniProt O00571 1-662)
binding [2]: binds

endogenous PP2A-C subunit (from UniProt P67775)
binding [3]: binds

B1: endogenous IKK-β (protein, UniProt O14920 1-756)
chain: MSWSPSLTTQTCGAWEMKERLGTGGFGNVIRWHNQETGEQIAIKQCRQELSPRNRERWCLEIQIMRRLTHPNVVAARDVPEGMQNLAPNDLPLLAMEYCQGGDLRKYLNQFENCCGLREGAILTLLSDIASALRYLHENRIIHRDLKPENIVLQQGEQRLIHKIIDLGYAKELDQGSLCTSFVGTLQYLAPELLEQQKYTVTVDYWSFGTLAFECITGFRPFLPNWQPVQWHSKVRQKSEVDIVVSEDLNGTVKFSSSLPYPNNLNSVLAERLEKWLQLMLMWHPRQRGTDPTYGPNGCFKALDDILNLKLVHILNMVTGTIHTYPVTEDESLQSLKARIQQDTGIPEEDQELLQEAGLALIPDKPATQCISDGKLNEGHTLDMDLVFLFDNSKITYETQISPRPQPESVSCILQEPKRNLAFFQLRKVWGQVWHSIQTLKEDCNRLQQGQRAAMMNLLRNNSCLSKMKNSMASMSQQLKAKLDFFKTSIQIDLEKYSEQTEFGITSDKLLLAWREMEQAVELCGRENEVKLLVERMMALQTDIVDLQRSPMGRKQGGTLDDLEEQARELYRRLREKPRDQRTEGDSQEMVRLLLQAIQSFEKKVRVIYTQLSKTVVCKQKALELLPKVEEVVSLMNEDEKTVVRLQEKRQKELWNLLKIACSKVRGPVSGSPDSMNASRLSQPGQLMSQPSTASNSLPEPAKKSEELVAEAHNLCTLLENAIQDTVREQDQSFTALDWSWLQTEEEEHSCLEQAS
binding [4]: binds
